Results as given in article PMC6034817.

The chains behind the UniProt entries cited, without tags or fusion partners. Where a name states a change or a piece, a line headed by the entry shows the natural chain unless it says otherwise. A line that says so, or that is headed by a name, gives the form on record, which may keep a tag or linker. Residues count along the entry.
UniProt Q93009: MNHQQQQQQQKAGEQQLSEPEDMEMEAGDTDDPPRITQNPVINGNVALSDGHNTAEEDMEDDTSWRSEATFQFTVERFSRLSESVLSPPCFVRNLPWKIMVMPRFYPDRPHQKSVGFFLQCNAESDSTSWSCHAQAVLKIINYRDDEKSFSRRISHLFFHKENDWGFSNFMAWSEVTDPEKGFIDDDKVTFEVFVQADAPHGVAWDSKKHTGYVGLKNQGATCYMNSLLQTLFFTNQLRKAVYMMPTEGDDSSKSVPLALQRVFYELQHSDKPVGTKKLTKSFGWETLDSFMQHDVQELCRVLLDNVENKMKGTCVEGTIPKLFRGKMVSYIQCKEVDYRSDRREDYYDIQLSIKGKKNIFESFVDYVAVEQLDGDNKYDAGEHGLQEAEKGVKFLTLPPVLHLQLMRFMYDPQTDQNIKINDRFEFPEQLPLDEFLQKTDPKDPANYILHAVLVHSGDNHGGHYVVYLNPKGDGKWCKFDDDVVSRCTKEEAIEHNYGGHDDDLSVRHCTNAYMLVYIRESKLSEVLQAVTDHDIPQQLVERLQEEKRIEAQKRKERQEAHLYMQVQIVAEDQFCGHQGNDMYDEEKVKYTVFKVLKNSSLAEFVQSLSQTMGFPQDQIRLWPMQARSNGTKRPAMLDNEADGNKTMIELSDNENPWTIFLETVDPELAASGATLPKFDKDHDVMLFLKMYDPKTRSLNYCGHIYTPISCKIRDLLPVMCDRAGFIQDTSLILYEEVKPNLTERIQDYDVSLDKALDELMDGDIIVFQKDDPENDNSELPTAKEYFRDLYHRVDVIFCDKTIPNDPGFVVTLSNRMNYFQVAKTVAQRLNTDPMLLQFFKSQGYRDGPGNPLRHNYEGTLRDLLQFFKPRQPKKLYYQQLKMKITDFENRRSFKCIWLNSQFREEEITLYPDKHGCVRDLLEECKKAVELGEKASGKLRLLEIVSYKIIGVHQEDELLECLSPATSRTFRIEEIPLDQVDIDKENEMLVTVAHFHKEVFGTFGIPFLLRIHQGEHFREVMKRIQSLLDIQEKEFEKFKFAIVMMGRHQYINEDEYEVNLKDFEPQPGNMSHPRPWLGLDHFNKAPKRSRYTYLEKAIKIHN
UniProt P08238: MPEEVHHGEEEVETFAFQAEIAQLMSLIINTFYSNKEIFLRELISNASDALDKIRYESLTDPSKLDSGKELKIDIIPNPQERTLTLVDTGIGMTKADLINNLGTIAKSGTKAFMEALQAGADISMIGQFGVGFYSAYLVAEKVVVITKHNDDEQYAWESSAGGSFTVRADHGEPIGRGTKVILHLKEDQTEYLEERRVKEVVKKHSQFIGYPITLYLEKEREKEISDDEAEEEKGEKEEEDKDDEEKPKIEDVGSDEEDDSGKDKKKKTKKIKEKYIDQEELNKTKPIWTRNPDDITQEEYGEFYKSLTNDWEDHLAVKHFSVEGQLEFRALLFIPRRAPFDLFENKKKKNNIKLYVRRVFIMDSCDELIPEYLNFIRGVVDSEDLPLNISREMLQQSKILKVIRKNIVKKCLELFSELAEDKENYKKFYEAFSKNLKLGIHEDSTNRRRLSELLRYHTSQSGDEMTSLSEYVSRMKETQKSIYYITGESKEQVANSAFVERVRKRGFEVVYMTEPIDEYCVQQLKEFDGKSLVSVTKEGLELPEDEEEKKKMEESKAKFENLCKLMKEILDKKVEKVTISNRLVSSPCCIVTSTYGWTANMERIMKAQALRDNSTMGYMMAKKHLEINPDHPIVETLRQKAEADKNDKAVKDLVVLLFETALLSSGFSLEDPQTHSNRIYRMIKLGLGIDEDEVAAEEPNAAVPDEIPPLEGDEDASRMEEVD
UniProt O00232: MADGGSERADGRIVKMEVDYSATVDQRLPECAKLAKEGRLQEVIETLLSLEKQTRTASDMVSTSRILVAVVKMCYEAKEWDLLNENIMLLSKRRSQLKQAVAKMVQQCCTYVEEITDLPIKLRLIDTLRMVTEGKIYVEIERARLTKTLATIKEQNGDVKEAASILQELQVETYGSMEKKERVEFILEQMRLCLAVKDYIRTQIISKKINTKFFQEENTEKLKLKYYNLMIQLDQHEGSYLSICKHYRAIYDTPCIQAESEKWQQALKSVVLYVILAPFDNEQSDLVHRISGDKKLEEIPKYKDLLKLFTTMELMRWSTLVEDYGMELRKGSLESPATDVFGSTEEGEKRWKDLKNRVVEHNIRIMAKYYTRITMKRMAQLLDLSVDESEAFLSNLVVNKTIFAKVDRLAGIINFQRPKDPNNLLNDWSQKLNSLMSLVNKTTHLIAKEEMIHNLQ
UniProt P62191: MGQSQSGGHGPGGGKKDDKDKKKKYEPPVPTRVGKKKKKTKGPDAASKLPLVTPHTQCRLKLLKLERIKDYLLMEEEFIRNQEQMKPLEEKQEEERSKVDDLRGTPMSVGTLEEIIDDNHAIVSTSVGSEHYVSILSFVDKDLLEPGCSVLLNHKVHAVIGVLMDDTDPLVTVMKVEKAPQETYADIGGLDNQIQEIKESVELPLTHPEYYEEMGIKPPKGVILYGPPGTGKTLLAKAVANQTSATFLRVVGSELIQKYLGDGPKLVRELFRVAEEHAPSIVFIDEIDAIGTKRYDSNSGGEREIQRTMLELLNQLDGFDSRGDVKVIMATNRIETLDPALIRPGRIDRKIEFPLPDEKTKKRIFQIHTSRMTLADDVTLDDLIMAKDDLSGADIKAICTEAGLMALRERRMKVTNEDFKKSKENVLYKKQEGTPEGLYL
UniProt O00487: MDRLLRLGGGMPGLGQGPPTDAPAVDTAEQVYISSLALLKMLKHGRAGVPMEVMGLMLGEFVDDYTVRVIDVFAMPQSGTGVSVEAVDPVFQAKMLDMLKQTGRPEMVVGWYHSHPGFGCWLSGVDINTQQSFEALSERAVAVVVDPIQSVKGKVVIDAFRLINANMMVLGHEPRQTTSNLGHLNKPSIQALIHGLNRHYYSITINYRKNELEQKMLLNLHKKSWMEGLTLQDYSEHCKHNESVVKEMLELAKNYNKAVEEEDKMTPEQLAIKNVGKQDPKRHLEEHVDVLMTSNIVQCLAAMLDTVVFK
26S proteasome non-ATPase regulatory subunit 1, Isoform 2 (Q99460-2, form named): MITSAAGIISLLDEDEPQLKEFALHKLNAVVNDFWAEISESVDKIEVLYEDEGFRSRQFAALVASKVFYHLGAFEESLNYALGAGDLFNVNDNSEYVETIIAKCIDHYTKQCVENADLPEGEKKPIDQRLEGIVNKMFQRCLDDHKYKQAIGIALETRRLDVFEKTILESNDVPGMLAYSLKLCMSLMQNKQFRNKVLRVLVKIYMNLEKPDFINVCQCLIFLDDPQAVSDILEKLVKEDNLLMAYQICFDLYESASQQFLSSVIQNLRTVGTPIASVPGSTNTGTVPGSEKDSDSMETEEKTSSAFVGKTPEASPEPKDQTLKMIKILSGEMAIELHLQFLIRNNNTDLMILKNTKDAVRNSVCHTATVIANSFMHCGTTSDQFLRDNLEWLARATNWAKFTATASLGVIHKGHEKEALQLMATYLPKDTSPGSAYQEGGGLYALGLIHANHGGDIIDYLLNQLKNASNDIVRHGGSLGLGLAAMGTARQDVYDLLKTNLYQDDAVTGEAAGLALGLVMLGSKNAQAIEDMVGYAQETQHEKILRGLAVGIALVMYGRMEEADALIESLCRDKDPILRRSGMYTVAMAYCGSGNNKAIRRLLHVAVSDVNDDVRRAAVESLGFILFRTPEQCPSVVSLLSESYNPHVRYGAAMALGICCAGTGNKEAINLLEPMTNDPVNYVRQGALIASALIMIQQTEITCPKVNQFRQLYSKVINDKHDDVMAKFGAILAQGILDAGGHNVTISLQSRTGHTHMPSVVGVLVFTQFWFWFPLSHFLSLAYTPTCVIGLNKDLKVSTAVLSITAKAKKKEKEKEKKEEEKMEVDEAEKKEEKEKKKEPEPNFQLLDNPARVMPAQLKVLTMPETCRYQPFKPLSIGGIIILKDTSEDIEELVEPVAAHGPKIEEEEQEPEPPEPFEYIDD
UniProt P35998: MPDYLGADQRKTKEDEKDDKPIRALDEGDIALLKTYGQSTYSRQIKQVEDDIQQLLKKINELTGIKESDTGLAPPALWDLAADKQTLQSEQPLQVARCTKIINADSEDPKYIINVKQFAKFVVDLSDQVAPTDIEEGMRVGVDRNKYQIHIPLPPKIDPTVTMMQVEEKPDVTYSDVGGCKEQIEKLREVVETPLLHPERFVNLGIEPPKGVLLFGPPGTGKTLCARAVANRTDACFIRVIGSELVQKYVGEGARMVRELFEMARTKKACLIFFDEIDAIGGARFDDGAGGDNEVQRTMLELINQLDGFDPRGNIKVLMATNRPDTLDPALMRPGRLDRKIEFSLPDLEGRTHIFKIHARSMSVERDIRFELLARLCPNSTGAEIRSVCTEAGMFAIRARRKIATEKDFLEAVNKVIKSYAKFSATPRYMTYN
UniProt P17980: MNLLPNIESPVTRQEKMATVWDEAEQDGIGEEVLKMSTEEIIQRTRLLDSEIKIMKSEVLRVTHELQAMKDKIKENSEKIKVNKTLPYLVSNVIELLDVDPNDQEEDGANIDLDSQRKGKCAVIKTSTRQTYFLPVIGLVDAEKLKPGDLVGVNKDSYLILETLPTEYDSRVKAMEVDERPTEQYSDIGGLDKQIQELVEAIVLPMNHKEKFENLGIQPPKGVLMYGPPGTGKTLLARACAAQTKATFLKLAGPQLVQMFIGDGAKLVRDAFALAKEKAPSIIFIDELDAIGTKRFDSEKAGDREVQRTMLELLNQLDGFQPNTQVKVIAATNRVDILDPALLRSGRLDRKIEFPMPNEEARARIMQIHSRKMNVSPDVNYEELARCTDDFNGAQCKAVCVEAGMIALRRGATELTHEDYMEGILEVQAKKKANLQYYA
UniProt P51784: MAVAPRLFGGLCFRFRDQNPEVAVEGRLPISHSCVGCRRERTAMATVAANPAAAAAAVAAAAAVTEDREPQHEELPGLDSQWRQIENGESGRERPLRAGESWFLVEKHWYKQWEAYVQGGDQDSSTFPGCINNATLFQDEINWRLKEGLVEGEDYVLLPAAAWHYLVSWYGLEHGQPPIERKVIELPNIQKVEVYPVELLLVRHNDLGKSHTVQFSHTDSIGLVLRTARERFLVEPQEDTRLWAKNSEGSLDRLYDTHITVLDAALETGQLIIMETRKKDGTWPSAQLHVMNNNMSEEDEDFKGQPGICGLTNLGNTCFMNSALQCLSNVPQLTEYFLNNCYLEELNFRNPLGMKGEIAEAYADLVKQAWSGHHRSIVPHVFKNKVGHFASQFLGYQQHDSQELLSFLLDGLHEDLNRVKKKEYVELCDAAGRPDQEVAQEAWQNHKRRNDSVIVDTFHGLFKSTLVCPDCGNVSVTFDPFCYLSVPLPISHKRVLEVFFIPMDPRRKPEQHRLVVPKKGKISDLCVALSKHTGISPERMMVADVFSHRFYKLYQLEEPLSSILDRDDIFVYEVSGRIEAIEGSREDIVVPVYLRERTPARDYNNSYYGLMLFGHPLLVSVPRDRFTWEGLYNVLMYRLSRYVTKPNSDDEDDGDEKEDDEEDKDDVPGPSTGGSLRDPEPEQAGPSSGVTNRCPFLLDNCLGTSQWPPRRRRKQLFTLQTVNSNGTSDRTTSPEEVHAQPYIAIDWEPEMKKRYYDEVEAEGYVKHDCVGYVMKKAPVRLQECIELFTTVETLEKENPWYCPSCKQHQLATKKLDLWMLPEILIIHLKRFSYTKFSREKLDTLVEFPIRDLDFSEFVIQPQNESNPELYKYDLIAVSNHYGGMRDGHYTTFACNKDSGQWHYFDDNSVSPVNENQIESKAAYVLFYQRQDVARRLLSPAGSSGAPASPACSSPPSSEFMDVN
UniProt Q9UNE7, residues 73-303: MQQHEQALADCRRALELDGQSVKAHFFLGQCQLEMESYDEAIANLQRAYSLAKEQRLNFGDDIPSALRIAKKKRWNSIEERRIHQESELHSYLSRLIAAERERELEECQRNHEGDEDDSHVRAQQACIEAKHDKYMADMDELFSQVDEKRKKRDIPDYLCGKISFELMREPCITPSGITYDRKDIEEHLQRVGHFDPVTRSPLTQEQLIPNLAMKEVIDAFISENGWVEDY

T1: Human ALDH1L1 (10-formyltetrahydrofolate dehydrogenase), purified recombinant (human) (UniProt O75891)
T1 sequence: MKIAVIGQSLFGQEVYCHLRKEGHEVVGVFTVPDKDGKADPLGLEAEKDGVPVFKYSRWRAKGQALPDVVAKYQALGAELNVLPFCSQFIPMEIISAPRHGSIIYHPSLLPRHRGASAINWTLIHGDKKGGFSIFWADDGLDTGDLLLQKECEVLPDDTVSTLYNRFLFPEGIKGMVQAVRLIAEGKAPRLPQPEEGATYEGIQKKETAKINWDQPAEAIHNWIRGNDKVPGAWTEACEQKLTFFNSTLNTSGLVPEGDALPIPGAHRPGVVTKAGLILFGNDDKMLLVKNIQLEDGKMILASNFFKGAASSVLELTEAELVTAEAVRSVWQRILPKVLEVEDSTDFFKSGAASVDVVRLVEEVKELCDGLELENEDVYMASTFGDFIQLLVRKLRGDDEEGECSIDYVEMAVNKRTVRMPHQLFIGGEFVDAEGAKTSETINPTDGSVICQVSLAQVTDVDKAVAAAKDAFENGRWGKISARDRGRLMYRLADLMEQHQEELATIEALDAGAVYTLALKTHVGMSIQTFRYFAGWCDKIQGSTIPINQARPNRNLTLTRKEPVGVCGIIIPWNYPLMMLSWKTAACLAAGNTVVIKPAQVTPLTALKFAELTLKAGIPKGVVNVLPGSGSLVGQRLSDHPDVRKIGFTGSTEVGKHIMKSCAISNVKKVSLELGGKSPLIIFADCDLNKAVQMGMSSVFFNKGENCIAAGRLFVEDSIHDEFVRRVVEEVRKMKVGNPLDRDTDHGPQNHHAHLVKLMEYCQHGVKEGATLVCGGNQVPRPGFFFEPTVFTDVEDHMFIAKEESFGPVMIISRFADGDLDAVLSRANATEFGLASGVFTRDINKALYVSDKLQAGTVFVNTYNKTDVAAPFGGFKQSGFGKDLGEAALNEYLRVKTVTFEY

B1: Isoform 2 of Ubiquitin carboxyl-terminal hydrolase 47 (enzyme, UniProt Q96K76-2 1-1287)
chain: MVPGEENQLVPKEAPLDHTSDKSLLDANFEPGKKNFLHLTDKDGEQPQILLEDSSAGEDSVHDRFIGPLPREGSGGSTSDYVSQSYSYSSILNKSETGYVGLVNQAMTCYLNSLLQTLFMTPEFRNALYKWEFEESEEDPVTSIPYQLQRLFVLLQTSKKRAIETTDVTRSFGWDSSEAWQQHDVQELCRVMFDALEQKWKQTEQADLINELYQGKLKDYVRCLECGYEGWRIDTYLDIPLVIRPYGSSQAFASVEEALHAFIQPEILDGPNQYFCERCKKKCDARKGLRFLHFPYLLTLQLKRFDFDYTTMHRIKLNDRMTFPEELDMSTFIDVEDEKSPQTESCTDSGAENEGSCHSDQMSNDFSNDDGVDEGICLETNSGTEKISKSGLEKNSLIYELFSVMVHSGSAAGGHYYACIKSFSDEQWYSFNDQHVSRITQEDIKKTHGGSSGSRGYYSSAFASSTNAYMLIYRLKDPARNAKFLEVDEYPEHIKNLVQKERELEEQEKRQREIERNTCKIKLFCLHPTKQVMMENKLEVHKDKTLKEAVEMAYKMMDLEEVIPLDCCRLVKYDEFHDYLERSYEGEEDTPMGLLLGGVKSTYMFDLLLETRKPDQVFQSYKPGEVMVKVHVVDLKAESVAAPITVRAYLNQTVTEFKQLISKAIHLPAETMRIVLERCYNDLRLLSVSSKTLKAEGFFRSNKVFVESSETLDYQMAFADSHLWKLLDRHANTIRLFVLLPEQSPVSYSKRTAYQKAGGDSGNVDDDCERVKGPVGSLKSVEAILEESTEKLKSLSLQQQQDGDNGDSSKSTETSDFENIESPLNERDSSASVDNRELEQHIQTSDPENFQSEERSDSDVNNDRSTSSVDSDILSSSHSSDTLCNADNAQIPLANGLDSHSITSSRRTKANEGKKETWDTAEEDSGTDSEYDESGKSRGEMQYMYFKAEPYAADEGSGEGHKWLMVHVDKRITLAAFKQHLEPFVGVLSSHFKVFRVYASNQEFESVRLNETLSSFSDDNKITIRLGRALKKGEYRVKVYQLLVNEQEPCKFLLDAVFAKGMTVRQSKEELIPQLREQCGLELSIDRFRLRKKTWKNPGTVFLDYHIYEEDINISSNWEVFLEVLDGVEKMKSMSQLAVLSRRWKPSEMKLDPFQEVVLESSSVDELREKLSEISGIPLDDIEFAKGRGTFPCDISVLDIHQDLDWNPKVSTLNVWPLYICDDGAVIFYRDKTEELMELTDEQRNELMKKESSRLQKTGHRVTYSPRKEKALKIYLDGAPNKDLTQD

Molecular target: T1, Human ALDH1L1 (10-formyltetrahydrofolate dehydrogenase), purified recombinant (human)
Assay: affinity purification with mass spectrometry; purified recombinant human ALDH1L1 (about 4 mg) held on folate (5-formyl-THF) affinity resin; A549 lysate loaded in 20 mM Tris-HCl pH 7.8, 150 mM NaCl, 10 mM 2-mercaptoethanol, 0.1% Triton X-100; washed with loading buffer and 0.5 M KCl; 2.0 M KCl eluate analysed by LC/MS-MS; proteins found on a column without ALDH1L1 excluded; only the target purified

Row | binding | Molecule
1 | binds | Ubiquitin carboxyl-terminal hydrolase (USP7) (from UniProt Q93009 1-1102) (enzyme)
2 | binds | Heat shock protein HSP 90-beta (from UniProt P08238 1-724)
3 | binds | 26S proteasome non-ATPase regulatory subunit 12 (from UniProt O00232 1-456)
4 | binds | 26S protease regulatory subunit 4 (from UniProt P62191 1-440)
5 | binds | 26S proteasome non-ATPase regulatory subunit 14 (from UniProt O00487 1-310)
6 | binds | 26S proteasome non-ATPase regulatory subunit 1, Isoform 2 (from UniProt Q99460-2 1-922)
7 | binds | Isoform 1 of Heat shock protein HSP 90-alpha (from UniProt P07900 1-732)
8 | binds | Ubiquitin specific protease 9, X-linked isoform 4 (human (endogenous in A549)) (enzyme)
9 | binds | 26S protease regulatory subunit 7 (from UniProt P35998 1-433)
10 | binds | 26S protease regulatory subunit 6B Isoform 2 (from UniProt P43686-2 1-387)
11 | binds | 26S protease regulatory subunit 6A (from UniProt P17980 1-439)
12 | binds | Ubiquitin carboxyl-terminal hydrolase 11 (from UniProt P51784 1-963) (enzyme)
13 | binds | Isoform 2 of STIP1 homology and U box-containing protein 1 (STUB1, E3 ubiquitin-protein ligase CHIP) (from UniProt Q9UNE7-2 1-231) (enzyme)
14 | binds | B1

These are yes or no findings as the source states them, for the method shown. Binding seen in cells or lysates may run through a third protein. A yes stands for co-enrichment or nearness to the bait. Other partners may have been found.
